Test results reported in PubChem BioAssay AID504834 (National Center for Advancing Translational Sciences (NCATS), 2011).
Out of some 320,000 compounds screened, about 22,000 (6.9%) were called active. Inconclusive results, whose numbers are uncertain, are shown with a selection of clear calls. The call rests on the fitted dose curve; in most records, active means well fitted inhibition curve with a large enough effect; inconclusive means small, poorly fitted or top-dose-only effect, or another doubt; inactive means no such curve, though single readings can be large or run the other way. Potencies beside an inconclusive call are fits to weak or partial responses and may not hold up.
Potency means the concentration at half of the fitted maximal effect.

Test: Primary qHTS for delayed death inhibitors of the malarial parasite plastid, 96 hour incubation
Conditions: P. falciparum luciferase reporter growth; series mostly up to 28.7 µM
Method in brief: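 Luminescence readout: decreased luciferase signal marks inhibited growth of reporter-expressing P. falciparum in infected red cells (2% hematocrit, 0.05% parasitemia final), exposed to compound two generations (96 h, 37 C, 5% CO2).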
With `O=C(Nn1c(O)c(C=C2N=c3ccccc3=N2)sc1=S)c1ccccc1` the Potency was inconclusive: 18.5 µM [inhibitor, partial curve, poor fit].
For `CCS(=O)(=O)c1ccc(NC(=O)c2ccccc2Cl)c(O)c1`, the Potency was inconclusive: 13.1 µM [inhibitor, partial curve, poor fit].
For `Cc1cccc(NC2=NC(C)(C)N=C(N)N2)c1C`, the Potency was inconclusive: 14.7 µM [inhibitor, partial curve, poor fit].
With `Cc1noc(C)c1CCC(=O)Nc1c(C(C)C)cccc1C(C)C` the Potency was inconclusive: 13.1 µM [inhibitor, single point].
With `Cc1ccccc1-c1nn2c(-c3ccccc3)nnc2s1` the Potency was active: 9.28 µM.
With `Cc1cc(-c2nnc(SCC(=O)Nc3cccc(F)c3)n2N)n[nH]1` the Potency was inconclusive: 18.5 µM [inhibitor, single point].
With `COc1ccc(C(=O)/C=C2/Sc3cc4c(cc3N2C)OCO4)cc1` the Potency was active: 2.08 µM.
For `Nn1c(SCC(=O)Nc2ccc(Oc3ccccc3)cc2)nnc1C1CC1`, the Potency was inconclusive: 13.1 µM [inhibitor, partial curve, poor fit].
With `CCOC(=O)C1=C(CSc2nc3c(cc2C#N)CN(C)CC3)OC(N)=C(C#N)C1c1ccc(F)cc1` (configuration not stated) the Potency was inconclusive: 18.5 µM [inhibitor, single point].
With `CC1=NN(c2ccccc2C(=O)O)C(=O)C1N=Nc1ccccc1` (configuration not stated) the Potency was “inactive”.
In the case of `CN(CC(=O)Nc1ccc(Cl)c(C(F)(F)F)c1)C(=O)c1cccc(N2C(=O)CCC2=O)c1`, the Potency is reported as inconclusive: 13.1 µM [inhibitor, single point].
In the case of `O=C(Nc1nc(-c2ccc(Cl)cc2Cl)cs1)c1ccc(OCC2CCCO2)cc1` (configuration not stated), the Potency is reported as inconclusive: 4.15 µM [inhibitor, partial curve, poor fit].
With `COc1ccc(NC(=O)CSCC(=O)OCc2cccc(OC)c2OC)cc1` the Potency was “inactive”.
For `COc1ccc(/C=C2/C(=O)N(c3c(F)c(F)c(F)c(F)c3F)N=C2C)cc1`, the Potency was inconclusive: 4.15 µM [inhibitor, partial curve, poor fit].
For `Cc1cccc(OCCC(=O)N(C)CC(=O)Nc2cccc3ccccc23)c1`, the Potency was “inactive”.
With `O=C(Nc1cc(C(=O)N2CCOCC2)ccc1N1CCCC1)c1cccs1` the Potency was inconclusive: 7.38 µM [inhibitor, partial curve, poor fit].
With `Cc1ccc(C)c(OCCC(=O)OCC(=O)Nc2ccc(C)c(S(=O)(=O)N3CCCCC3)c2)c1` the Potency was “inactive”.
With `CC(=O)Nc1ccc(C2=NN(c3ccccc3)C(c3ccccc3)C2)cc1` (configuration not stated) the Potency was active: 11.7 µM.
With `COc1ccc(-c2c[n+]3c4n2CCCCC4=C(c2ccccc2)C3)cc1` the Potency was active: 6.57 µM.
For `CCOCCCNC(=O)CCCn1nc(C)n2c(cc3sccc32)c1=O`, the Potency was “inactive”.
For `O=C1CCN(Cc2ccc([N+](=O)[O-])cc2)CCN1[C@H](CO)c1ccccc1`, the Potency was inconclusive: 4.15 µM [inhibitor, single point].
For `C/C(N)=C(/C#N)C(=O)CSc1nnc(NC(C)C)s1`, the Potency was inconclusive: 11.7 µM [inhibitor, single point].
With `Cc1ccccc1OCCCCn1c(CO)nc2ccccc21` the Potency was inconclusive: 18.5 µM [inhibitor, single point].
For `Cc1cccc2nc3ccccc3nc12`, the Potency was “inactive”.
For `CC(C)NC(=O)CSc1nnc(-c2ccc3ncccc3c2)n1C`, the Potency was “inactive”.
With `CN(Cc1ccccc1)C(=O)CC(=O)N(C)Cc1ccccc1` the Potency was “inactive”.
In the case of `CCn1c(C(=O)N2CCc3ccccc3C2)cc2sccc21`, the Potency is reported as inconclusive: 7.38 µM [inhibitor, single point].
In the case of `CCn1c(SCc2cccc(C(F)(F)F)c2)nnc1-c1ccco1`, the Potency is reported as inconclusive: 18.5 µM [inhibitor, single point].
For `O=C(NCCN1C(=O)S/C(=C\c2ccc(OC(F)F)cc2)C1=O)c1cnccn1`, the Potency was inconclusive: 9.28 µM [inhibitor, single point].
For `COc1ccc(C(CNC(=O)c2cccc(Br)c2)N2CCCC2)cc1` (configuration not stated), the Potency was inconclusive: 18.5 µM [inhibitor, single point].
For `Cc1cccc(C(=O)NCc2nnc(SCC(=O)Nc3nncs3)n2C)c1`, the Potency was inconclusive: 8.28 µM [inhibitor, single point].
In the case of `CCn1c(SCC(N)=O)nc2cc(S(=O)(=O)N3CCOCC3)ccc21`, the Potency is reported as “inactive”.
In the case of `O=C(N/N=C/c1ccc(O)cc1)c1cc(-c2ccc3c(c2)OCO3)n[nH]1`, the Potency is reported as “inactive”.
For `Cc1cc(=O)oc2c1ccc1ccccc12`, the Potency was “inactive”.
For `CC(C)c1ccc(NC2CCCN(C(=O)c3cccs3)C2)cc1` (configuration not stated), the Potency was “inactive”.
For `Cc1ccc(-n2nnnc2-c2cnn(-c3ccc(F)cc3)c2C(F)(F)F)cc1`, the Potency was inconclusive: 18.5 µM [inhibitor, single point].
For `Cc1cc(NC(=O)c2sc(Nc3ccc(F)c(Cl)c3)nc2N)no1`, the Potency was “inactive”.
For `OCCNCCCOc1cc(Cl)ccc1Cl`, the Potency was inconclusive: 18.5 µM [inhibitor, single point].
With `Cc1cccnc1NC(=O)c1ccc(S(=O)(=O)N2CCC(C)CC2)cc1` the Potency was inconclusive: 0.928 µM [inhibitor, partial curve, poor fit].
With `COc1cccc(NS(=O)(=O)c2c(C)cc(C)cc2C)c1` the Potency was inconclusive: 8.28 µM [inhibitor, partial curve, poor fit].
For `O=c1ccc(S(=O)(=O)N2CCCC2)cn1Cc1nc(-c2ccccc2)no1`, the Potency was inconclusive: 13.1 µM [inhibitor, single point].
For `CCCCCCCCO`, the Potency was inconclusive: 4.65 µM [inhibitor, partial curve].
For `O=C(Cn1nc(-c2ccccc2F)ccc1=O)NCc1ccc2c(c1)OCO2`, the Potency was inconclusive: 1.65 µM [inhibitor, full curve].
With `CCc1ccc(OCC(=O)N2CCN=C2c2ccccc2)cc1` the Potency was “inactive”.
In the case of `CC(C)COc1ccc(Cc2cnc(N)nc2N)cc1`, the Potency is reported as inconclusive: 11.7 µM [inhibitor, single point].
With `Cc1ccccc1NC(=O)Cc1nc(COC(=O)c2ccc(Cl)c(S(N)(=O)=O)c2)cs1` the Potency was active: 13.1 µM.
In the case of `COCCNC(=O)/C(C#N)=C1\N=C(N)c2ccccc21`, the Potency is reported as “inactive”.
